Consider four molecules from paper PMC4222359.

Protein sequences, listed by entry. Tags and fused reporters are not part of them.
UniProt P54098: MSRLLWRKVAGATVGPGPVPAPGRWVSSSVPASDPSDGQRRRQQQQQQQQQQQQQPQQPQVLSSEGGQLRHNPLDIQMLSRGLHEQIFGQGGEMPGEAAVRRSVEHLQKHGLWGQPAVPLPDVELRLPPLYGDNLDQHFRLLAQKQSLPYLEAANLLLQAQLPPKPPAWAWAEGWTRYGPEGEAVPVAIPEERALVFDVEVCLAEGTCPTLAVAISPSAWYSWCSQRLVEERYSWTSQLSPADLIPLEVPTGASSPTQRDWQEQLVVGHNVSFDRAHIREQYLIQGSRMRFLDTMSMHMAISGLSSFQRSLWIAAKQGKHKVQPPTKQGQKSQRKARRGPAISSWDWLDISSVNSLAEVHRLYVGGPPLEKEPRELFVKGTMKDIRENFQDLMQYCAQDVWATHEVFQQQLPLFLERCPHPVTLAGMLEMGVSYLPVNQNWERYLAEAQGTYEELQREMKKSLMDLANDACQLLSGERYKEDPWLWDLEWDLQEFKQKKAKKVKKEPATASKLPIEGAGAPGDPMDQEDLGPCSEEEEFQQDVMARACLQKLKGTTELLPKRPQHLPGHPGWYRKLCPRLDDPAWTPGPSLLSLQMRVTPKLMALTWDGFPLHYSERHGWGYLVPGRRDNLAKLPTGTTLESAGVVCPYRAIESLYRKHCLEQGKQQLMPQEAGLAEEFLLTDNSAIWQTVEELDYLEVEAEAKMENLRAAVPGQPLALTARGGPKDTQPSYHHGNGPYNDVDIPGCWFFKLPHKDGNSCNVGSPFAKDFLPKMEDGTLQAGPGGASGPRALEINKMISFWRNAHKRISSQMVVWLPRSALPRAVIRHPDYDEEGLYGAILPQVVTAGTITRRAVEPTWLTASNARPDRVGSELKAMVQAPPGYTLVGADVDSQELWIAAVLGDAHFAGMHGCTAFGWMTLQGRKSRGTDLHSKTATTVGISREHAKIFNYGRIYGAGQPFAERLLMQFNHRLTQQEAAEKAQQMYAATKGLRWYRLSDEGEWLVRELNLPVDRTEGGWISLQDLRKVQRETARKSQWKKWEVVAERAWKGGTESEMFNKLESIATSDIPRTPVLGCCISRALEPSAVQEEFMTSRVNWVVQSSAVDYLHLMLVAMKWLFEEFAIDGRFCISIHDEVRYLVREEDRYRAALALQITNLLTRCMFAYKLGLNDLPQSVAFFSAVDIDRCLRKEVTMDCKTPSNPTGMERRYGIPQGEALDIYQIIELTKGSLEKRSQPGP

These are yes or no findings as the source states them, for the method shown. Binding seen in cells or lysates may run through a third protein. Some results given as binding are weak or reduced against the parent protein; the word gives no strength. For some of these results: Sequences can lack the tags named with a protein.

In test [1] the target is T1, MGME1.Flag.Strep2 (human) (UniProt Q9BQP7).
T1 sequence: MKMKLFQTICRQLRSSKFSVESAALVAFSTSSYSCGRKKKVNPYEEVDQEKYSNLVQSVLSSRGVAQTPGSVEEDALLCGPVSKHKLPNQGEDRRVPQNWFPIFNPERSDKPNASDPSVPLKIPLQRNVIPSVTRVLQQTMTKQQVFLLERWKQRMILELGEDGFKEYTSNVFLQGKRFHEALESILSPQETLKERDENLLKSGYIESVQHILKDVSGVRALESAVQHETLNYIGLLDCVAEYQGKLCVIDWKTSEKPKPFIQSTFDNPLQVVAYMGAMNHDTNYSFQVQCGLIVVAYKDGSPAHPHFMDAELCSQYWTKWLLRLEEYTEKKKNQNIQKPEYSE
Kind of test: pull-down; MGME1.Flag.Strep2 as bait from mitochondrial lysates of induced HEK293T cells, streptavidin column; input and elution analysed by western blot; parental HEK293T as control. A general note: In western blotting, separated proteins are transferred to a membrane and probed.

Test [2] has as its target T2, MGME1.Flag.Strep2 (human), Q9BQP7.
T2 chain: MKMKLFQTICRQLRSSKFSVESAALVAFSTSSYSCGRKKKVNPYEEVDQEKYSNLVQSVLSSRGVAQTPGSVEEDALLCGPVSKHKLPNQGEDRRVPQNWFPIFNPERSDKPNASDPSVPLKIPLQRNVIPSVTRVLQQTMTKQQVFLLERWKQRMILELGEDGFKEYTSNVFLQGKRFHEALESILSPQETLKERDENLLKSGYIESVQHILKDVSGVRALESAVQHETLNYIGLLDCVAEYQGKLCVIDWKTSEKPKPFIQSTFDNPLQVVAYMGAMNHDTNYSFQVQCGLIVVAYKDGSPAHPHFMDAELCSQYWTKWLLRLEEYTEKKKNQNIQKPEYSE
Described as above. The following applies: remark: other sources report otherwise.

Test [3] deals with PolgA.Flag.Strep2 (human) (UniProt P54098). Kind of test: pull-down; reciprocal: PolgA.Flag.Strep2 as bait from mitochondrial lysates of HEK293T cells, purified on a streptavidin column; input and elution analysed by western blot; parental HEK293T as control (legend calls it co-IP).

For “PolgA (from UniProt P54098 1-1239) (enzyme)”, the binding entry in test [1] is “binds”.

B1: mtSSB (protein, UniProt Q04837 17-148)
chain: ESETTTSLVLERSLNRVHLLGRVGQDPVLRQVEGKNPVTIFSLATNEMWRSGDSEVYQLGDVSQKTTWHRISVFRPGLRDVAYQYVKKGSRIYLEGKIDYGEYMDKNNVRRQATTIIADNIIFLSDQTKEKE
With B1, in test [1], the binding entry is “no binding”.

B2: TFAM, Q00059 43-246 (protein)
chain: SSVLASCPKKPVSSYLRFSKEQLPIFKAQNPDAKTTELIRRIAQRWRELPDSKKKIYQDAYRAEWQVYKEEISRFKEQLTPSQIMSLEKEIMDKHLKRKAMTKKKELTLLGKPKRPRSAYNVYVAERFQEAKGDSPQEKLKTVKENWKNLSDSEKELYIQHAKEDETRYHNEMKSWEEQMIEVGRKDLLRRTIKKQRKYGAEEC
For B2, the binding entry in test [2] was “no binding”.

B3: MGME1 (enzyme, UniProt Q9BQP7 1-344)
chain: MKMKLFQTICRQLRSSKFSVESAALVAFSTSSYSCGRKKKVNPYEEVDQEKYSNLVQSVLSSRGVAQTPGSVEEDALLCGPVSKHKLPNQGEDRRVPQNWFPIFNPERSDKPNASDPSVPLKIPLQRNVIPSVTRVLQQTMTKQQVFLLERWKQRMILELGEDGFKEYTSNVFLQGKRFHEALESILSPQETLKERDENLLKSGYIESVQHILKDVSGVRALESAVQHETLNYIGLLDCVAEYQGKLCVIDWKTSEKPKPFIQSTFDNPLQVVAYMGAMNHDTNYSFQVQCGLIVVAYKDGSPAHPHFMDAELCSQYWTKWLLRLEEYTEKKKNQNIQKPEYSE
Consider B3, for which the binding entry in test [3] is reported as “binds”.
